Assay [1] deals with Ross River virus (RRV, T48) structural proteins on infected cells (Ross River virus) (UniProt P08491). The assay is described as follows: flow cytometry on infected 3T3 cells, 1 µg/ml. On the technique in general: In flow cytometry, cells or beads pass a laser one at a time.
Assay [2] shares this target. The assay is described as follows: flow cytometry of infected 3T3 cells, 1 µg/ml protein, anti-mouse IgG Alexa Fluor 647.

The chains behind the UniProt entries cited, without tags or fusion partners. Where a name states a change or a piece, a line headed by the entry shows the natural chain unless it says otherwise.
UniProt P08491: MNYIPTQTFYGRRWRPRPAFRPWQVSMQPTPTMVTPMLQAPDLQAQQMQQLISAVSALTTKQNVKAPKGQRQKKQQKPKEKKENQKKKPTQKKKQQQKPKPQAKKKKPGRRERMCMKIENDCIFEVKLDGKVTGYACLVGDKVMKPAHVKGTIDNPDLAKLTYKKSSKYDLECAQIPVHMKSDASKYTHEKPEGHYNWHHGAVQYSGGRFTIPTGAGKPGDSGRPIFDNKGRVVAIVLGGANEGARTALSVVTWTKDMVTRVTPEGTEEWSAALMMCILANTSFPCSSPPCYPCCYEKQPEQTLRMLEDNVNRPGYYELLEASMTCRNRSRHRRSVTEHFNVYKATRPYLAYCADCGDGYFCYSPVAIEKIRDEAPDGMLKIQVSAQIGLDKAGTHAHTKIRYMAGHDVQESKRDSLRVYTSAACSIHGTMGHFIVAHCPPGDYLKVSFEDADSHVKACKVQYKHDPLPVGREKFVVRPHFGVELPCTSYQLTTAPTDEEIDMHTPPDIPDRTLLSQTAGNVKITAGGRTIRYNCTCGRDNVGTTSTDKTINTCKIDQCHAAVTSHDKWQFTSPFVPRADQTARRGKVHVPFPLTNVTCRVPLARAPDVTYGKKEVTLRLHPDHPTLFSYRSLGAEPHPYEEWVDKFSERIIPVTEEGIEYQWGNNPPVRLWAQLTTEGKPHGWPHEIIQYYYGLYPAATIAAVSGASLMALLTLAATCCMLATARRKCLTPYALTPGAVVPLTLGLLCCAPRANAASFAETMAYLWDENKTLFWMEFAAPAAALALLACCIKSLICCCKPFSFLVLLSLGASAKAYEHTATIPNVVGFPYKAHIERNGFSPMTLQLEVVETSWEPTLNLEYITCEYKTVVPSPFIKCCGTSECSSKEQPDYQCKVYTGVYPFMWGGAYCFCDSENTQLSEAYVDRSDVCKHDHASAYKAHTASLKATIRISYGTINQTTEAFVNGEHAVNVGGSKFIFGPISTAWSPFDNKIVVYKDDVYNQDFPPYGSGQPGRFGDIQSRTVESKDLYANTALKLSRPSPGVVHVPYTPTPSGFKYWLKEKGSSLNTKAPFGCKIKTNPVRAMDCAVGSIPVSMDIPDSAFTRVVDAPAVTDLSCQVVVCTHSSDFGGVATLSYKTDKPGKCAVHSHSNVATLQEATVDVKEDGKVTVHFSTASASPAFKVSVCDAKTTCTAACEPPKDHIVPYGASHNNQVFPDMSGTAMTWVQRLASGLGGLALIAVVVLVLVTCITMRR

These are yes or no findings as the source states them, for the method shown. Some entries that bind do so weakly or less than the wild type. Where a sequence is shown, tags or fusion partners need not be part of it.

B1: Mxra8-Fc (extracellular domain of mouse Mxra8 fused to mouse IgG2b Fc) (Fc fusion)
chain: SGPSGTAAASSSLVSESVVSLAAGTQAVLRCQSPRMVWTQDRLHDRQRVVHWDLSGGPGSQRRRLVDMYSAGEQRVYEPRDRDRLLLSPSAFHDGNFSLLIRAVDRGDEGVYTCNLHHHYCHLDESLAVRLEVTEDPLLSRAYWDGEKEVLVVAHGAPALMTCINRAHVWTDRHLEEAQQVVHWDRQLPGVSHDRADRLLDLYASGERRAYGPPFLRDRVSVNTNAFARGDFSLRIDELERADEGIYSCHLHHHYCGLHERRVFHLQVTEPAFEPPARASPGNGSGHSSAPSPDPTLTRGHSIINVIVPEDHTHPSGPISTINPCPPCKECHKCPAPNLEGGPSVFIFPPNIKDVLMISLTPKVTCVVVDVSEDDPDVQISWFVNNVEVHTAQTQTHREDYNSTIRVVSTLPIQHQDWMSGKEFKCKVNNKDLPSPIERTISKIKGLVRAPQVYILPPPAEQLSRKDVSLTCLVVGFNPGDISVEWTSNGHTEENYKDTAPVLDSDGSYFIYSKLNMKTSKWEKTDSFSCNVRHEGLKNYYLKKTISRSPGK
B1: the binding result in assay [1] and in assay [2] was “binds” in each case.

(Values after patent publication US20240124553A1.)
